Patent US20190062384A1
No constants are given. Whether binding was seen depends on the method and setting. Binding seen in cells or lysates may run through a third protein. Some entries that bind do so weakly or less than the wild type.

Columns and labels:
[1] = molecular target: Ostrinia nubilalis Bt toxin receptor (SEQ ID NO: 4) (Ostrinia nubilalis); assay: co-immunoprecipitation from O. nubilalis BBMVs with 1 uM or 100 nM IP2.127, SDS-PAGE gel
[2] = molecular target: Helicoverpa zea Bt toxin receptor (SEQ ID NO: 2) (Helicoverpa zea); assay: co-precipitation from H. zea BBMVs with 1 uM or 100 nM biotin-labeled IP2.127, SDS-PAGE gel

IP2.127 (from UniProt P21254 2-633) (ligand)
binding [1]: binds

biotin labeled IP2.127 (from UniProt P21254 2-633) (ligand)
binding [2]: binds
